From the supplement of paper PMC4604168 (melanoma cell lines)
The other results are listed elsewhere or left out. Repeats are few or missing, and single values can be far off.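 The apoptosis fraction was the count of cleaved-PARP antibody-stained nuclei relative to all DNA-stained nuclei, imaged in 1,536-well plates. Screening doses were set so most cells survived, and baseline and induced cleaved-PARP levels vary greatly across cell lines.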

What was measured:
Test in all cases: cleaved PARP positive nuclei fraction relative to DMSO control; melanoma cells; higher = more apoptosis
Conditions in all cases: library dose: low library concentration; 72 h
[1] = test system: MZ2-MEL
[2] = test system: MeWo
[3] = test system: RPMI7951
[4] = test system: RVH-421
[5] = test system: SkMel28
[6] = test system: SkMel2
[7] = test system: SkMel30
[8] = test system: UACC62
[9] = test system: WM115
[10] = test system: WM1716
[11] = test system: WM1745
[12] = test system: WM3526
[13] = test system: WM3619
[14] = test system: WM451Lu
[15] = test system: SkMel5
[16] = test system: UACC257

| Compound | cleaved PARP positive nuclei fraction [1] [%] | cleaved PARP positive nuclei fraction [2] [%] | cleaved PARP positive nuclei fraction [3] [%] | cleaved PARP positive nuclei fraction [4] [%] | cleaved PARP positive nuclei fraction [5] [%] | cleaved PARP positive nuclei fraction [6] [%] | cleaved PARP positive nuclei fraction [7] [%] | cleaved PARP positive nuclei fraction [8] [%] | cleaved PARP positive nuclei fraction [9] [%] | cleaved PARP positive nuclei fraction [10] [%] | cleaved PARP positive nuclei fraction [11] [%] | cleaved PARP positive nuclei fraction [12] [%] | cleaved PARP positive nuclei fraction [13] [%] | cleaved PARP positive nuclei fraction [14] [%] | cleaved PARP positive nuclei fraction [15] [%] | cleaved PARP positive nuclei fraction [16] [%] |
| --- | --- | --- | --- | --- | --- | --- | --- | --- | --- | --- | --- | --- | --- | --- | --- | --- |
| C[As](C)SC[C@H](NC(=O)CC[C@H](N)C(=O)O)C(=O)NCC(=O)O [Darinaparsin] + COCC[n+]1c2c(n(Cc3cnccn3)c1C)C(=O)c1ccccc1C2=O [YM155] (first compound 0.4 µM, partner dose 0.0004 µM) | 75.8 | 180 | 62.5 | 120 | 104 | 146 | 66.5 | 134 | 95.2 | 41.9 | 98.3 | 101 | 87.7 | 56.7 | – | – |
| CN1CCN(c2ccc3nc(-c4c(N)c5c(F)cccc5[nH]c4=O)[nH]c3c2)CC1 [Dovitinib] + C[As](C)SC[C@H](NC(=O)CC[C@H](N)C(=O)O)C(=O)NCC(=O)O [Darinaparsin] (first compound 0.1 µM, partner dose 0.4 µM) | 375 | 134 | 107 | 105 | 58.8 | 94.1 | 314 | 132 | 128 | 60.9 | 100 | 94.9 | 93.5 | 44.1 | – | – |
| CCN(CC)CCNC(=O)c1c(C)[nH]c(/C=C2\C(=O)Nc3ccc(F)cc32)c1C [sunitinib] + N.N.[Cl][Pt][Cl] [cisplatin] (first compound 0.4 µM, partner dose 1.6 µM) | 34.8 | 107 | 108 | 72.3 | 155 | 45.8 | 93.5 | 237 | 58.1 | 114 | 97.5 | 121 | 77.4 | 88.3 | – | – |
| O=C(Nc1cc(C(F)(F)F)cc(C(F)(F)F)c1)c1cc(Cl)ccc1O + N.N.[Cl][Pt][Cl] [cisplatin] (first compound 0.016 µM, partner dose 1.6 µM) | 96.7 | 182 | 101 | 114 | 59.6 | 133 | 131 | 105 | 113 | 71 | 94.7 | 131 | 76 | 54.1 | – | – |
| C/C(O)=C(\C#N)C(=O)Nc1cc(Br)ccc1Br + COc1cc(N2CCC(N3CCN(C)CC3)CC2)ccc1Nc1ncc(Cl)c(Nc2ccccc2S(=O)(=O)C(C)C)n1 [NVP-TAE684] (first compound 2 µM, partner dose 0.08 µM) | 60.6 | 166 | 106 | 58.7 | 176 | – | 18.3 | 102 | 116 | 51.9 | 117 | 79.4 | 93.9 | 28.6 | 40.2 | 118 |
| NC(=O)Nc1cc(-c2cccc(F)c2)sc1C(=O)N[C@H]1CCCNC1 + O=C(Oc1ccc([N+](=O)[O-])cc1)N1CCC(C(O)(c2ccc3c(c2)OCO3)c2ccc3c(c2)OCO3)CC1 [JZL184] (first compound 0.02 µM, partner dose 1 µM) | 46.4 | 58.1 | 41.9 | 52.2 | 167 | – | 49.1 | 136 | 125 | 67.3 | 95.8 | 148 | 104 | 162 | 29.9 | 122 |
| C[C@@H](N)c1ccc(C(=O)Nc2ccnc3[nH]ccc23)cc1 + N.N.[Cl][Pt][Cl] [cisplatin] (first compound 0.4 µM, partner dose 1.6 µM) | 238 | 62.8 | 63 | 135 | 183 | 133 | 87.4 | 90.5 | 41.9 | 90 | 111 | 47.3 | 96.3 | 184 | – | – |
| COc1ccc(-c2ccc3c(N4CCOCC4)nc(N4C[C@@H](C)O[C@@H](C)C4)nc3n2)cc1CO + Cc1cc(SCc2sc(-c3ccc(C(F)(F)F)c(F)c3)nc2C)ccc1OCC(=O)O [GW0742] (first compound 0.02 µM, partner dose 2 µM) | 41.1 | 164 | 88 | 44.1 | 56.7 | – | 44.2 | 104 | 42.7 | 141 | 104 | 62.5 | 118 | 254 | 82.9 | 119 |
| O=S(=O)(c1ccccc1)N(CC(F)(F)F)c1ccc(C(O)(C(F)(F)F)C(F)(F)F)cc1 + O=C(Oc1ccc([N+](=O)[O-])cc1)N1CCC(C(O)(c2ccc3c(c2)OCO3)c2ccc3c(c2)OCO3)CC1 [JZL184] (first compound 1.4 µM, partner dose 1 µM) | 72 | 51.3 | 78.7 | 83.7 | 218 | – | 103 | 137 | 105 | 96.7 | 108 | 83.6 | 78.3 | 56.7 | 36.5 | 42.1 |
| Cn1cnc2c(F)c(Nc3ccc(Br)cc3Cl)c(C(=O)NOCCO)cc21 [selumetinib] + N.N.[Cl][Pt][Cl] [cisplatin] (first compound 0.015 µM, partner dose 1.6 µM) | 171 | 126 | 109 | 111 | 91.1 | 116 | 22.6 | 148 | 136 | 94.1 | 106 | 91.8 | 104 | 50.1 | – | – |
| COc1ccc(-c2ccc3c(N4CCOCC4)nc(N4C[C@@H](C)O[C@@H](C)C4)nc3n2)cc1CO + O=C(Oc1ccc([N+](=O)[O-])cc1)N1CCC(C(O)(c2ccc3c(c2)OCO3)c2ccc3c(c2)OCO3)CC1 [JZL184] (first compound 0.02 µM, partner dose 1 µM) | 119 | 33.8 | 107 | 101 | 135 | – | 64.4 | 82.1 | 132 | 109 | 102 | 87.1 | 94.5 | 115 | 36.3 | 127 |
| CO[C@@H]1[C@H](N(C)C(=O)c2ccccc2)C[C@H]2O[C@]1(C)n1c3ccccc3c3c4c(c5c6ccccc6n2c5c31)C(=O)NC4 [Midostaurin] + Cc1cc(SCc2sc(-c3ccc(C(F)(F)F)c(F)c3)nc2C)ccc1OCC(=O)O [GW0742] (first compound 0.08 µM, partner dose 2 µM) | 66.3 | 63 | 200 | 120 | 253 | – | 101 | 157 | 83.2 | 133 | 116 | 57.6 | 88.5 | 57.9 | 97.5 | 104 |
| Cn1cc(C2=C(c3cn(C4CCN(Cc5ccccn5)CC4)c4ccccc34)C(=O)NC2=O)c2ccccc21 [Enzastaurin] + C#Cc1cccc(Nc2ncnc3cc(OCCOC)c(OCCOC)cc23)c1 [erlotinib] (first compound 0.8 µM, partner dose 0.8 µM) | 63.6 | 29.6 | 111 | 150 | 175 | 103 | 71.8 | 102 | 80.6 | 18.7 | 122 | 117 | 82.4 | 40.8 | – | – |
| Nc1ccn([C@@H]2O[C@H](CO)[C@@H](O)C2(F)F)c(=O)n1 [gemcitabine] + C[As](C)SC[C@H](NC(=O)CC[C@H](N)C(=O)O)C(=O)NCC(=O)O [Darinaparsin] (first compound 0.0004 µM, partner dose 0.4 µM) | 187 | 115 | 155 | 58.3 | 41.6 | 135 | 81.7 | 66.2 | 52.4 | 110 | 137 | 28 | 125 | 61 | – | – |
| C=CCn1c(=O)c2cnc(Nc3ccc(N4CCN(C)CC4)cc3)nc2n1-c1cccc(C(C)(C)O)n1 + Cc1cc(SCc2sc(-c3ccc(C(F)(F)F)c(F)c3)nc2C)ccc1OCC(=O)O [GW0742] (first compound 0.02 µM, partner dose 2 µM) | 88.9 | 40.7 | 148 | 36.6 | 206 | – | 411 | 186 | 178 | 130 | 119 | 97.8 | 91.3 | 105 | 68.8 | 211 |
| O=C(O)C(=O)Nc1sc2c(c1C(=O)O)CCNC2 + O=C(Oc1ccc([N+](=O)[O-])cc1)N1CCC(C(O)(c2ccc3c(c2)OCO3)c2ccc3c(c2)OCO3)CC1 [JZL184] (first compound 1.66667 µM, partner dose 1 µM) | 74.1 | 23.4 | 88.1 | 84.8 | 74.5 | – | 107 | 74.4 | 51.4 | 118 | 133 | 36.2 | 74.4 | 32.4 | 69.7 | 138 |
| C[C@]12O[C@H](C[C@]1(O)CO)n1c3ccccc3c3c4c(c5c6ccccc6n2c5c31)CNC4=O [Lestaurtinib] + CO[C@@H]1[C@H](N(C)C(=O)c2ccccc2)C[C@H]2O[C@]1(C)n1c3ccccc3c3c4c(c5c6ccccc6n2c5c31)C(=O)NC4 [Midostaurin] (first compound 0.004 µM, partner dose 0.08 µM) | 221 | 99.6 | 90.7 | 92.6 | 67.1 | – | 69.2 | 97.2 | 111 | 118 | 97 | 43.2 | 109 | 125 | 120 | 131 |
| N.N.[Cl][Pt][Cl] [cisplatin] + C=CCNC1=C2C[C@@H](C)C[C@H](OC)[C@H](O)[C@@H](C)/C=C(\C)[C@H](OC(N)=O)[C@@H](OC)/C=C\C=C(/C)C(=O)NC(=CC1=O)C2=O [Tanespimycin] (first compound 1.6 µM, partner dose 0.002 µM) | 130 | 85.6 | 88.2 | 136 | 110 | 78.3 | 26.1 | 65.6 | 137 | 35 | 98.4 | 39.2 | 136 | 22.7 | – | – |
| O=c1[nH]nc(Sc2ncc([N+](=O)[O-])s2)n1-c1ccc2c(c1)OCCO2 + C[As](C)SC[C@H](NC(=O)CC[C@H](N)C(=O)O)C(=O)NCC(=O)O [Darinaparsin] (first compound 0.2 µM, partner dose 0.4 µM) | 137 | 61.5 | 77.3 | 109 | 80.2 | 63.9 | 75.9 | 124 | 138 | 20.7 | 205 | 55.4 | 125 | 88.4 | – | – |

2 consecutive entries already listed:

| Compound | cleaved PARP positive nuclei fraction [1] [%] | cleaved PARP positive nuclei fraction [2] [%] | cleaved PARP positive nuclei fraction [3] [%] | cleaved PARP positive nuclei fraction [4] [%] | cleaved PARP positive nuclei fraction [5] [%] | cleaved PARP positive nuclei fraction [6] [%] | cleaved PARP positive nuclei fraction [7] [%] | cleaved PARP positive nuclei fraction [8] [%] | cleaved PARP positive nuclei fraction [9] [%] | cleaved PARP positive nuclei fraction [10] [%] | cleaved PARP positive nuclei fraction [11] [%] | cleaved PARP positive nuclei fraction [12] [%] | cleaved PARP positive nuclei fraction [13] [%] | cleaved PARP positive nuclei fraction [14] [%] | cleaved PARP positive nuclei fraction [15] [%] | cleaved PARP positive nuclei fraction [16] [%] |
| --- | --- | --- | --- | --- | --- | --- | --- | --- | --- | --- | --- | --- | --- | --- | --- | --- |
| C=CCn1c(=O)c2cnc(Nc3ccc(N4CCN(C)CC4)cc3)nc2n1-c1cccc(C(C)(C)O)n1 + Cc1cc(SCc2sc(-c3ccc(C(F)(F)F)c(F)c3)nc2C)ccc1OCC(=O)O [GW0742] (first compound 0.02 µM, partner dose 2 µM) | 88.9 | 40.7 | 148 | 36.6 | 206 | – | 411 | 186 | 178 | 130 | 119 | 97.8 | 91.3 | 105 | 68.8 | 211 |
| O=C(O)C(=O)Nc1sc2c(c1C(=O)O)CCNC2 + O=C(Oc1ccc([N+](=O)[O-])cc1)N1CCC(C(O)(c2ccc3c(c2)OCO3)c2ccc3c(c2)OCO3)CC1 [JZL184] (first compound 1.66667 µM, partner dose 1 µM) | 74.1 | 23.4 | 88.1 | 84.8 | 74.5 | – | 107 | 74.4 | 51.4 | 118 | 133 | 36.2 | 74.4 | 32.4 | 69.7 | 138 |
